{"source": "patent US10736973B2", "about": "“Glucose analogs for diagnosis states” (TECHNOLOGY INNOVATION MOMENTUM FUND (ISRAEL) LIMITED …, priority 2014, dated 2020)", "test": "CEST NMR of 10 mM glucose analog solutions (MTRasym)", "type": "physicochemical", "conditions": "11.7 T", "procedure": "• Chemicals and Media: 3OMG, D-glucose, D-glucose 6 phosphate, 2-DG and 2-DG-6P sodium salt were obtained from Sigma-Aldrich, Israel; FDG was obtained from Carbosynth Limited, UK. The glucose analogs were prepared at concentration of 10 mM (pH=7.5), containing 10% D2O for NMR field locking. • Cells: DA3-D1-DMBA-3 is a cell line derived from a poorly differentiated mammary adenocarcinoma induced in BALB/C mice by dimethylbenzanthracene. • Animals: BALB/C female mice were purchased and kept in the breeding facility of the Sackler School of Medicine, Tel Aviv University. To induce orthotropic tumors in mice, DA3 cells were injected into the lower left mammary gland of 8 week old (17-22 gr) female BALB/c mice (5×10^5 cells in 100 μL saline). All experiments with animal models were done in compliance with the principles of the National Research Council (NRC) and were approved by the institutional animal care and use committee (IACUC) (# M-12-035). • Preparation of Tumor Extracts: The tumors were surgically excised and weighed quickly and immediately immersed in liquid nitrogen. The frozen tumors were homogenized with a tissue homogenizer, using the methanol/CHCl3/H2O extraction method 19, a dual-phase extraction procedure to extract intracellular metabolites, with a volume ratio of 2:2:1.8, respectively. After centrifugation (−4° C., 4000×g, 12 min), only the upper aqueous phase was kept for analysis. The samples were dried gently by evaporator, than were frozen at −80° C., and lyophilized to dryness for 24 hr. Each sample was dissolved in 0.5 ml D2O (99.98%, Biolab, Israel), adjusted at pH=6.5-7 and inserted into 5 mm tube for NMR. • NMR Spectroscopy: 1H NMR Spectra were recorded at 500 MHz in 5 mm tubes on a Bruker 500 MHz DRX with the following parameters: spectral width 7500 Hz, pulse width 5.5 us (corresponding to a 45° flip angle); data size 16 K; relaxation delay 10 s; number of scans=16. […] The chemical exchange contrast was measured by magnetization transfer asymmetry, MTRasym. […]"}
{"smiles": "CO[C@@H]([C@H](O)[C@H](O)CO)[C@@H](O)C=O", "note": "[3OMG, 3-O-methylglucose]", "values": [{"measurement": "CEST percent (MTRasym), peak at 1.2 ppm", "setting": "10% D2O, pH=7.5, T=37° C., B1 3.6 μT (150 Hz)", "value": 22, "unit": "%"}, {"measurement": "CEST effect at frequency offset of 1.2 ppm", "setting": "pH ~7.5, rf saturation field 3.6-5.9 μT, T=25° C.", "value": "20-32%"}, {"measurement": "CEST effect compared with the other glucose analogs", "setting": "pH=7.5, T=37° C., B1=3.6 μT, versus 2-DG, 2-DG-6P, FDG, D-glu, D-glu-6P", "value": "significantly higher"}]}
